Drawing on PubChem BioAssay AID540335 (Broad Institute, 2011), this text covers activity change, negative = decreased viability for 26 compounds.

Hit rate of the full screen: of about 1,300 compounds, about 270 (21%) were called active.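 The calls were made as follows: active = dose-dependent rise or fall in viability, either side of zero, with half-maximal concentration at or below a set limit; inconclusive = flat curve at 30 to 70% viability loss, or poor fit; inactive = flat within 30% either way, or potency beyond limit.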 This is one part of the list. Results with a measured potency or affinity are listed apart.

A short description of this test: A375 melanoma cell viability reduction, dose response, counter-screen for MITF modulator project, cherry-pick samples, set 2 (AID 540335).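 Also: A375 human melanoma cells which do not depend on MITF; 0% = median of neutral control wells and 100% = double that signal.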 The settings on record: CellTiter-Glo ATP luminescence, 24 h; at 35 µM (top of the series).
As for `O=C1c2ccccc2C(=O)N1CCOc1ccccc1`, the activity change, negative = decreased viability is inactive: -1.42%.

With `CN1C/C(=C/c2cccnc2)C(=O)/C(=C/c2cccnc2)C1`, the activity change, negative = decreased viability was inactive: 45.4%.

With `CCN(CC)S(=O)(=O)c1cccc(C(=O)N/N=C(\C)c2ccc(O)cc2O)c1`, the activity change, negative = decreased viability is inactive: -32.2%.

Regarding `OCCNc1c2ccccc2nc2c(F)c(F)c(F)c(F)c12`, the activity change, negative = decreased viability was inactive: -3.67%.

Consider `COc1cccc(C(=O)N/N=C(/c2ccccc2)c2ccccn2)c1`, for which the activity change, negative = decreased viability is inactive: -35.3%.

As for `COc1ccc(-c2noc(-c3cccs3)n2)cc1OC`, the activity change, negative = decreased viability is inactive: -0.394%.

On to `S=c1[nH]nc(-c2ccco2)n1/N=C/C(Cl)=C/c1ccccc1`, for which the activity change, negative = decreased viability is inactive: 8.32%.

For the compound `COc1cc(/C=N/N=C(N)N)ccc1OCc1ccc(Cl)cc1`, the activity change, negative = decreased viability is inactive: -96.4%.

For the compound `CNC(=O)COC(=O)c1ccccc1C(=O)c1ccc(Cl)c([N+](=O)[O-])c1`, the activity change, negative = decreased viability was inactive: 50.1%.

For `O=C(Nc1ccc(F)c(Cl)c1)c1ccc2c(c1)OCO2`, the activity change, negative = decreased viability is inactive: 7%.

Regarding `COC(=O)[C@@H](C)NC(=O)c1ccc2oc(CCc3ccccc3)nc2c1`, the activity change, negative = decreased viability is inactive: 1.95%.

As to `Nc1ccc2c(c1)OC1(CCCC1)O2`, the activity change, negative = decreased viability was inactive: -5.61%.

Take `Cc1cc(C)c2c(N)c(C(=O)N/N=C/c3cccnc3)sc2n1`: the activity change, negative = decreased viability is inactive: 11.6%.

Consider `O=[N+]([O-])c1ccc(/C=N/Nc2ccnc3cc(Cl)ccc23)o1`, for which the activity change, negative = decreased viability was inactive: -13.7%.

On to `NC(=O)C1CCN(C2=C(NS(=O)(=O)c3ccc(Br)cc3)C(=O)c3ccccc3C2=O)CC1`, for which the activity change, negative = decreased viability is inactive: -10.2%.

Consider `COc1ccccc1C(=O)Nc1nc(-c2ccc(S(=O)(=O)N3CCOCC3)cc2)cs1`, for which the activity change, negative = decreased viability is inactive: -9.48%.

Turning to `COc1ccc(NC(=O)Nc2ccc(F)c(F)c2)c(OC)c1`, the activity change, negative = decreased viability is inactive: 16.1%.

As for `Cc1ccc(C(=O)Nc2nc3ccc(Cl)cc3s2)o1`, the activity change, negative = decreased viability was inactive: -6.8%.

Turning to `CC(=O)N/C(N)=N/c1nc(=O)c2ccccc2s1`, the activity change, negative = decreased viability is inactive: 11.6%.

Consider `CN=c1scc(-c2ccccc2F)n1/N=C/c1ccc[nH]1`, for which the activity change, negative = decreased viability was inactive: -31.4%.

For `Cc1ccc(NCC(=O)N/N=C\c2ccc([N+](=O)[O-])o2)cc1`, the activity change, negative = decreased viability was inactive: -7.59%.

As to `O=C(/C=C/c1ccc([N+](=O)[O-])s1)N1CCCC1`, the activity change, negative = decreased viability was inactive: -14.7%.

With `COc1ccc2oc(C(=O)Nc3ccc(S(=O)(=O)N(C)C4CCN(C)CC4)cc3)c(C)c2c1`, the activity change, negative = decreased viability was inactive: -26.3%.

Take `O=C(O)C1CCN(C(=O)OCc2ccccc2)CC1`: the activity change, negative = decreased viability was inactive: 3.83%.

As for `COc1cc2nc(SCC(=O)NCc3ccco3)n(Cc3ccc(Cl)cc3)c(=O)c2cc1OC`, the activity change, negative = decreased viability was inactive: -6.5%.

In the case of `Cc1ccc(COc2ccc(C)nc2[N+](=O)[O-])cc1`, the activity change, negative = decreased viability is inactive: 0.699%.
